From article PMC6447414

Key:
[1] = molecular target: T1, 3xFLAG-Zfp423 (UniProt Q80TS5); assay: affinity purification with mass spectrometry; 3xFLAG-Zfp423 purified from C2C12 nuclear extracts with anti-FLAG M2 magnetic beads, 3 h at 4°C, washes with buffer D (20 mM HEPES, 150 mM KCl, 0.05% NP-40, 10% glycerol) and buffer D with 500 mM KCl, eluted with 3xFLAG peptide, LC-MS/MS
T1 sequence: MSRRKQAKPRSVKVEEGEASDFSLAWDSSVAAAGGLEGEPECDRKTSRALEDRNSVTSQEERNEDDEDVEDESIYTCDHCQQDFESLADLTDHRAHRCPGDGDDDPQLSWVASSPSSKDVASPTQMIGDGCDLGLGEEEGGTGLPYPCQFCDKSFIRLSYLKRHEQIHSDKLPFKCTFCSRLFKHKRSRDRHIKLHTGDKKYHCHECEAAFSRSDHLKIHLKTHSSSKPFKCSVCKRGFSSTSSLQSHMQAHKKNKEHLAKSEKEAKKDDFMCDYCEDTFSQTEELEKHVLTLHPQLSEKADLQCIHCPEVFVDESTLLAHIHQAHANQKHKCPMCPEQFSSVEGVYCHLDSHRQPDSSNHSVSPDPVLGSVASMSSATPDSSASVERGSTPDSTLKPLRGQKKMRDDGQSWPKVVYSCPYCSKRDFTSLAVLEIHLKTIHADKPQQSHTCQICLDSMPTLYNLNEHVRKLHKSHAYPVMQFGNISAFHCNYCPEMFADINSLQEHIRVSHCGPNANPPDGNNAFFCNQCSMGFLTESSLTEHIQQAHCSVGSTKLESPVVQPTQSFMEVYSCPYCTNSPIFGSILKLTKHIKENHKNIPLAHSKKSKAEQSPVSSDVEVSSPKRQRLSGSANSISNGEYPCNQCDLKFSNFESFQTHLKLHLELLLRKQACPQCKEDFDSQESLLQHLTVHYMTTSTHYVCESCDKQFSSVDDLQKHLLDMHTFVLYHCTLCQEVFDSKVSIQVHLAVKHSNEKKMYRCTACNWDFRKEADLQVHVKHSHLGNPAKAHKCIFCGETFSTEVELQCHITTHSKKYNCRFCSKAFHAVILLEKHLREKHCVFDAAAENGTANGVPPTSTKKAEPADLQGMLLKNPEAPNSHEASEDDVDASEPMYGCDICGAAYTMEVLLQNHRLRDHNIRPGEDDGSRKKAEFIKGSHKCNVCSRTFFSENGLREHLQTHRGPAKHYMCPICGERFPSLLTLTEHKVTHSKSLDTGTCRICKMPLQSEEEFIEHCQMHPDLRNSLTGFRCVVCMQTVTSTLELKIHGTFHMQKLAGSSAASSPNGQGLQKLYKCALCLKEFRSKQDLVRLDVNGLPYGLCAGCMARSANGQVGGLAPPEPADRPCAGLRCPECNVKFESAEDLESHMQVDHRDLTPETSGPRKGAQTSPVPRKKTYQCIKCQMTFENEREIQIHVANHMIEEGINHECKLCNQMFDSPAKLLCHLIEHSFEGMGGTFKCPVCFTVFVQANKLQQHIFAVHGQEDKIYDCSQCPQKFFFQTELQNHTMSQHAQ

[2] = molecular target: T2, 3xFLAG-Zfp423, Q80TS5; assay: as above; settings: remark: other sources report otherwise
T2 chain: T1 sequence

binding [1]: no binding
Molecule: Notch1 intracellular domain (Nicd1), endogenous in C2C12 (mouse (endogenous in C2C12)) (domain or fragment)

binding [2]: no binding
B1: Ebf1, endogenous in C2C12, Q07802 1-591 (protein)
chain: MFGIQESIQRSGSSMKEEPLGSGMNAVRTWMQGAGVLDANTAAQSGVGLARAHFEKQPPSNLRKSNFFHFVLALYDRQGQPVEIERTAFVGFVEKEKEANSEKTNNGIHYRLQLLYSNGIRTEQDFYVRLIDSMTKQAIVYEGQDKNPEMCRVLLTHEIMCSRCCDKKSCGNRNETPSDPVIIDRFFLKFFLKCNQNCLKNAGNPRDMRRFQVVVSTTVNVDGHVLAVSDNMFVHNNSKHGRRARRLDPSEGTPSYLEHATPCIKAISPSEGWTTGGATVIIIGDNFFDGLQVIFGTMLVWSELITPHAIRVQTPPRHIPGVVEVTLSYKSKQFCKGTPGRFIYTALNEPTIDYGFQRLQKVIPRHPGDPERLPKEVILKRAADLVEALYGMPHNNQEIILKRAADIAEALYSVPRNHNQLPALANTSVHAGMMGVNSFSGQLAVNVSEASQATNQGFTRNSSSVSPHGYVPSTTPQQTNYNSVTTSMNGYGSAAMSNLGGSPTFLNGSAANSPYAIVPSSPTMASSTSLPSNCSSSSGIFSFSPANMVSAVKQKSAFAPVVRPQTSPPPTCTSTNGNSLQAISGMIVPPM

Results are given in words; binding and its absence hold for the method and conditions named. In cells and extracts the contact can be indirect. These calls come from enrichment with a bait or labelling near it, and not all partners need be listed. A no says only that the protein was not detected with the bait. Where a sequence is shown, tags or fusion partners need not be part of it. One block for each molecule: values may come before it.
